Most values lie at the floor of the assay. Slopes are relative: functional sequences can read slightly below zero.
System: Saccharomyces cerevisiae PS128 hsf1 delta, HSF1(1-493) fusion
Assay: growth estimate (transactivation domain function in HSF1 fusion, heat-shock survival) (a.u. (slope of normalised read count over time)); higher = stronger growth at 37°C, i.e. more transactivation activity
Details: library: random library

Substance	growth estimate
KCAKWHARPRSRLGVAKTGT	< -0.25
SISNLHRQGYNVAPGFTITQ	< -0.25
ISFGG	< -0.25
FFGFVSHRLLPPSVSNHRLT	< -0.25
PHL	< -0.25
SSKDKNSQLMQPKENSEQRR	< -0.25
LPRGLRDSSLVRNWYLRFAK	< -0.25
TAEGKRTVRVIESWTQKSRD	< -0.25
WSASIVQTSALF	< -0.25
IKGFSGGHYALL	< -0.25
AHTRHV	-0.237
VATHMCPERPAPDVHVCVRR	< -0.25
HGKVVRFHLVVDTRNAMVLT	< -0.25
FYLISQL	< -0.25
SSRPGGVIAFEWEVLVCGAA	< -0.25
RSARNCQSGMAGTGDRSRIG	< -0.25
TLCMRRRQASSSHRGDLVAA	< -0.25
SRSIRGPK	< -0.25
KPHIVITGAMEGSSRATVRL	< -0.25
QAPFPMRPHTRGLRSSNGRY	< -0.25
LSSLPQGKGRPGGDMNFAKR	< -0.25
GNRRCKR	< -0.25
TRCYQFPWWDSHGRVLTRV	< -0.25
SWVYKKRAI	< -0.25
KFLWCK	0.147

Substance	growth estimate
GSYRALILLDFTLWRLLGRT	< -0.25
LMAAGLYLRDRNDLEEPLTP	< -0.25
THD	< -0.25
RSSMDR	-0.25
HMFYSIGWPVK	< -0.25
HSTEVHTQAMLPKAHWYGP	< -0.25
LGFTLRAPGAVSGPNAHTGL	< -0.25
LTLHVRPLSRIRSTSSADSP	< -0.25
SHSPVCGPRASGARVQYATS	< -0.25
LVVRRGGRPDLRSRRRTLQG	< -0.25
SQLNLVVPRHVDRASGPGSK	< -0.25
LLPSGSFARVSSRYPSRPCA	< -0.25
TVALLQGSPSCLR	-0.192
AKELKPSSFLTYWNGGKFRR	< -0.25
HVGARTCARLRSCMSNSLTT	< -0.25
QRHGFNTGRE	< -0.25
AAIPCQYSVIGRDTQG	< -0.25
VKSRVNC	< -0.25
DLIVI	< -0.25
GYLGRIVSATNIYGPSGPTG	< -0.25
TKQRQNA	< -0.25
DDRLR	< -0.25
GMVGDSPWAGFP	< -0.25
VARVICSGEQFRV	< -0.25
AISVGRFRRLSPIALQAWPP	< -0.25

Exported bar-delimited: entries from further up
Substance | growth estimate
THD | < -0.25
HSTEVHTQAMLPKAHWYGP | < -0.25
LVVRRGGRPDLRSRRRTLQG | < -0.25
LLPSGSFARVSSRYPSRPCA | < -0.25
QRHGFNTGRE | < -0.25
TKQRQNA | < -0.25

Continued.

Substance	growth estimate
ELRGPPYSC	< -0.25
NPCVLGQSAYLI	< -0.25
RWVSICNRSEGGWS	< -0.25
RRNFGVRKETEWVPGEPIKV	-0.229
SRGSVGV	< -0.25
NPPQGECSVPASTFSKGTAP	< -0.25
LQSVH	< -0.25
HGRTA	< -0.25
PWLHVQTAV	< -0.25
SDGHALLANDMLQRPAFARQ	< -0.25
GWLNNLHVVIRQDAFLLKIQ	< -0.25
GRSYYGFHSRAGKPVLSS	< -0.25
GKCPWESWGDCGGRKGCTIV	< -0.25
YLRTSSNPLHRASLCYPGIT	< -0.25
GSICVKGILGSGVEGNST	< -0.25
GSRSGYPQESFRRAGRMVQV	< -0.25
LRVKF	< -0.25
LRLDVMGC	< -0.25
SWL	< -0.25
RTTFGHGRKSLLVLGLVWRE	< -0.25
QKTE	< -0.25
MRGRMEVETTI	< -0.25
VDLLGPEAPHTSDFDQRLAT	< -0.25
CSLAGAGT	< -0.25
YCQWLA	< -0.25

Substance	growth estimate
VVSRCTYQK	< -0.25
RDIIRDEHWVRLSRIDHLPS	< -0.25
DWGAEDSKLQRLKSSGTFCR	< -0.25
SIRLLCGAKSGPSAPFFL	< -0.25
RCTAGGLDRETVKRQVLCIC	< -0.25
GVARTAAEGGEMVLRPFCSV	< -0.25
FCR	< -0.25
IADGRYNCNSTHITKAPE	< -0.25
QVGVTVCPRECFV	< -0.25
PFFSGSKTEQP	< -0.25
STGLNEDSYPHSRLHCSLPT	< -0.25
PVRLSWTGMISKRKL	< -0.25
RGARIGRYMHAGPRAVSRSL	< -0.25
AGAVTAQTRIFVLQT	< -0.25
ARSLYDRLEIGSFKLKAWVG	< -0.25
QNGRKKSVGQVS	< -0.25
IHAGCVS	< -0.25
VPIRLAMSSMIAKSAGHGNT	< -0.25
WWGGPTAPLALESAPVAGPR	< -0.25
GLWLIGGCQNFVRRS	< -0.25
GLNLNPCQALRFTRGRVVCT	< -0.25
DHVSC	< -0.25
ADPQTLHRSLIHWPRYLTGM	< -0.25
DDADRYHHIPDNRDSPCSSL	< -0.25
